The values below come from PMC8749979.

Chains of the proteins cited; added tags and fusions are not shown.
UniProt Q07666: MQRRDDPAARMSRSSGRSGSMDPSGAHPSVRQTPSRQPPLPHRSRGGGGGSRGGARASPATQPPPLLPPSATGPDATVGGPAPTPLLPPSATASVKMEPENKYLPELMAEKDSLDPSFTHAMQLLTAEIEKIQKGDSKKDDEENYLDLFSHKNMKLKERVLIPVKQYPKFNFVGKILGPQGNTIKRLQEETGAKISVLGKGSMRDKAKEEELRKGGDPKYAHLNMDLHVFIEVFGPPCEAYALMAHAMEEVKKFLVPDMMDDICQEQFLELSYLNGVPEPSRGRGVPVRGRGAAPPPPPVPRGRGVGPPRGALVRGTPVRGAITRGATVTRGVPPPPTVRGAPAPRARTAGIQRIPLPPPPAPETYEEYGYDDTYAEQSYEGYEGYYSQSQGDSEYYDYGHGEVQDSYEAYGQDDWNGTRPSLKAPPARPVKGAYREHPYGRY

Assay [1] deals with SRC associated in mitosis of 68 kDa (SAM68) (human (endogenous in CL1-5)) (UniProt Q07666). In words: co-IP + cross-linking; CL1-5 cells treated with 1 mM cross-linker DSP for 15 min at RT before lysis; same lysis buffer; immunoprecipitation with anti-SAM68, protein G magnetic beads, 4 °C overnight; Western blot.
Assay [2] shares this target. Description: co-IP; lysates of untreated CL1-5 cells (no cross-linker); lysis buffer 150 mM NaCl, 0.5% sodium deoxycholate, 1% NP-40, 0.1% SDS; 1 mg lysate with 1 ug anti-SAM68, anti-OGT or control IgG and protein G magnetic beads, 4 °C overnight; Western blot.

No constants are given. Whether binding was seen depends on the method and setting. In cells and extracts the contact can be indirect. Some results given as binding are weak or reduced against the parent protein; the word gives no strength.

B1: O-GlcNAc transferase (OGT) (enzyme, UniProt O15294 1-1046)
chain: MASSVGNVADSTEPTKRMLSFQGLAELAHREYQAGDFEAAERHCMQLWRQEPDNTGVLLLLSSIHFQCRRLDRSAHFSTLAIKQNPLLAEAYSNLGNVYKERGQLQEAIEHYRHALRLKPDFIDGYINLAAALVAAGDMEGAVQAYVSALQYNPDLYCVRSDLGNLLKALGRLEEAKACYLKAIETQPNFAVAWSNLGCVFNAQGEIWLAIHHFEKAVTLDPNFLDAYINLGNVLKEARIFDRAVAAYLRALSLSPNHAVVHGNLACVYYEQGLIDLAIDTYRRAIELQPHFPDAYCNLANALKEKGSVAEAEDCYNTALRLCPTHADSLNNLANIKREQGNIEEAVRLYRKALEVFPEFAAAHSNLASVLQQQGKLQEALMHYKEAIRISPTFADAYSNMGNTLKEMQDVQGALQCYTRAIQINPAFADAHSNLASIHKDSGNIPEAIASYRTALKLKPDFPDAYCNLAHCLQIVCDWTDYDERMKKLVSIVADQLEKNRLPSVHPHHSMLYPLSHGFRKAIAERHGNLCLDKINVLHKPPYEHPKDLKLSDGRLRVGYVSSDFGNHPTSHLMQSIPGMHNPDKFEVFCYALSPDDGTNFRVKVMAEANHFIDLSQIPCNGKAADRIHQDGIHILVNMNGYTKGARNELFALRPAPIQAMWLGYPGTSGALFMDYIITDQETSPAEVAEQYSEKLAYMPHTFFIGDHANMFPHLKKKAVIDFKSNGHIYDNRIVLNGIDLKAFLDSLPDVKIVKMKCPDGGDNADSSNTALNMPVIPMNTIAEAVIEMINRGQIQITINGFSISNGLATTQINNKAATGEEVPRTIIVTTRSQYGLPEDAIVYCNFNQLYKIDPSTLQMWANILKRVPNSVLWLLRFPAVGEPNIQQYAQNMGLPQNRIIFSPVAPKEEHVRRGQLADVCLDTPLCNGHTTGMDVLWAGTPMVTMPGETLASRVAASQLTCLGCLELIAKNRQEYEDIAVKLGTDLEYLKKVRGKVWKQRISSPLFNTKQYTMELERLYLQMWEHYAAGNKPDHMIKPVEVTESA
Turning to B1, the binding entry is on record as “binds” in assay [1] and “binds weakly” in assay [2].
